Source: the supplement of paper PMC5949888
Most values lie at the floor of the assay. Slopes are relative: functional sequences can read slightly below zero.

System: Saccharomyces cerevisiae PS128 hsf1 delta, HSF1(1-493) fusion
Assay: growth estimate (transactivation domain function in HSF1 fusion, heat-shock survival) (a.u. (slope of normalised read count over time)); higher = stronger growth at 37°C, i.e. more transactivation activity
Conditions: library: random library
Procedure: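 Random 60-nt DNA library encoding peptides of up to 20 aa, fused to the C-terminus of yeast HSF1 residues 1-493 (C-terminal TAD deleted) and expressed from the native HSF1 promoter on a CEN plasmid in hsf1-deleted S. cerevisiae PS128. Cells were selected at 37°C on -trp 5-FOA plates for 0, 2, 4, 6 and 8 days and amplicons were sequenced. Growth estimate is the slope of a robust linear fit of total-sum-normalised read counts (normalised to the first time point) over time, using at least 2 replicates. Sequences are classed functional (TAD activity) above a threshold of -0.13, set from stop-codon control sequences.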

Substance	growth estimate
AIS	< -0.25
ILEHDTGR	< -0.25
GLVEGFYVL	< -0.25
SWN	< -0.25
STKGSAQG	< -0.25
VAHHQGCVTQHNISQKLGKG	< -0.25
RTVQERSRASL	< -0.25
KRWPFKQLVFSLEHAL	< -0.25
EDGRQC	< -0.25
RMRVNLRIH	-0.243
TRRSESSKVALTEHRSRGGN	-0.246
ILLVRRTPASIKCILG	-0.245
GVGTVPKATNGLVSCQRSQG	< -0.25
SDY	< -0.25
PVDSLCPSVEITLRFGRSFV	-0.229
VMLGSGCKGVTADE	< -0.25
YNAKLPRRAR	< -0.25
EASNFSGTSMEIAVLERSWT	< -0.25
FAEKFRDSLLKL	-0.207
IEFLPWPKYLQVSIGPGA	< -0.25
IEQNTGTLLNLRIHHGSMFA	< -0.25
SVHAPEN	< -0.25
APFIN	< -0.25
KAWGDGRP	< -0.25
RAG	< -0.25
ATGLSKMA	< -0.25

Substance	growth estimate
LTRRDQQNIPTLKYGLVC	< -0.25
TVLARRD	< -0.25
TSTGKARQARHAAAVNGVLV	< -0.25
GMMAGYTQYQFSIQSTHLIG	< -0.25
VRSGGQCSPCASGRTFPQL	< -0.25
ARATYKVSIGDRLGNSLRIV	< -0.25
AIL	-0.0345
SLQPSRRNPLCRAPRVTTRA	< -0.25
ARVKLTKYS	< -0.25
RHHYHG	< -0.25
KSFVKTHGVCDCYISS	< -0.25
LTPS	< -0.25
LGTLWIRLLQFGDLG	< -0.25
HREHHSWRQVSASPHVPNLL	< -0.25
FRRSRQCARYNLFQNNRRCP	0.436
RGDGPICKGRWPNDSRRGNK	< -0.25
ISLEGLPSTP	< -0.25
GREVLKSIVRFDTSILHSPE	< -0.25
VYKSPEVSEKERGTQ	< -0.25
AGYALNGNRIGSPFSEAGVD	< -0.25
EWADTPASYRRWGVF	< -0.25
IWKPRGRSSETNGCNRERHI	< -0.25
AVVGRRCISPCTRPLDAAAP	< -0.25
SRSIPVSTWVLRTCVRDKTR	< -0.25
RIDYSHDFTELNRIGVGVFT	< -0.25
RNVMLGGVDTPVRNYITHTW	< -0.25

Substance	growth estimate
GGNIHLRERTGPAGFPPITT	< -0.25
PLCGITRDTCKF	< -0.25
GRQLLIKVGREGAKWRCNIV	< -0.25
FTVEQDEVGFEFHGMLLFWG	< -0.25
RRYIMTVPPGDICAVQVRSA	-0.245
LRTCTKRNRVAKQLAILKSK	< -0.25
QLSQTGPTPLSEACRESVRT	< -0.25
TRLTCSTPCF	< -0.25
VTRLMLLRRFMPIPFGKIRT	< -0.25
TLY	< -0.25
VTATCHLSRSK	< -0.25
GTAVW	< -0.25
HLSRLTVLVGDCNC	< -0.25
QIS	< -0.25
PMVVDGLVARKTKTR	< -0.25
WSLGNLS	< -0.25
PSLYPHLIP	< -0.25
CSSHKQTGR	< -0.25
VYSTAQYRDIWSTIMSEDPA	< -0.25
SGRGLCDVWLT	< -0.25
VVR	< -0.25
SSE	< -0.25
CYRDENEPGS	< -0.25
TCVSKRMMVSVRLGWTTGF	< -0.25
VDGQTVCHGQASREVARDRL	< -0.25
LSRDENCLQQWGDRSTATGR	< -0.25

Substance	growth estimate
GRDY	< -0.25
ATNPPSASGVATHSALASSD	< -0.25
IWSRGILMVLTRRCPVLPRA	< -0.25
PDTA	< -0.25
NNE	< -0.25
YSRLFTKSHNVQDS	< -0.25
RQGVYRGLMCSWATGTRR	< -0.25
RTGVMCH	< -0.25
RIVHAGQVGRDSS	< -0.25
QCQRSGLEWSDGR	< -0.25
QFGRLEKYES	< -0.25
SDDGCSSVFQCHSFCRTWRV	< -0.25
GRPRKVVPR	< -0.25
PSRAGSYETQRSARVQFLSY	< -0.25
GPSLLRWNE	< -0.25
QEQA	< -0.25
PGDAKGSLCLSCLTTSLPRA	< -0.25
FWGNHRGACCLDIPKKHLCR	< -0.25
VGGSPSMTSRYMQSSDPKGS	< -0.25
THSTFARKPAQVR	< -0.25
RLLGVTAFVEVRFIKAI	< -0.25
TPRQYHNAA	-0.245
QIRGRISSRERPPVNSIGFR	< -0.25
DGLILNVGVRITRNSPGDQI	< -0.25
ILASLPMTRYNVNLACR	< -0.25
KGNRIFCN	< -0.25

Taken from above:
Value of GMMAGYTQYQFSIQSTHLIG under growth estimate: < -0.25
Value of VVR under growth estimate: < -0.25
Value of TPRQYHNAA under growth estimate: -0.245
Value of KSFVKTHGVCDCYISS under growth estimate: < -0.25

Going on with the list:

Substance	growth estimate
AVHASNVPQLVSRVQVEFFP	< -0.25
EGHRVYSGP	< -0.25
PLSSVEVRYLHQLKTLTIE	< -0.25
ARGAIKGNKLILVTRGGGFR	< -0.25
ARGDYIGSGLLFSPDLPEYG	< -0.25
WVGVNCRKNPAEQSE	< -0.25
QRSDIGVVFPVCSFYLGWIN	< -0.25
QVDGRGRGLRLGATVRRSDG	< -0.25
IYALK	< -0.25
LKDPEPLGNERHTGRMRRPT	< -0.25
RASSSCNVRNSCIGR	< -0.25
TGGSATGPAKPCRFWPLSQG	< -0.25
TTPSGRVCKEAQAIAGAPKL	< -0.25
LRCDQSYMEPDRKGTKVP	< -0.25
RALSWGPEQRTHQYVLPRIG	< -0.25
ICF	< -0.25
NERRTVDPI	< -0.25
VAGYVYRKV	< -0.25
HITRAQQVIWATID	< -0.25
HRKRSSNVSPGPLWRKPASN	-0.0091
DVCVVRRAKRGSDNTHVAGH	< -0.25
STLH	< -0.25
GGCPGKASELQSEAAI	< -0.25
KCYGICKARGIRSYKATTTE	< -0.25
YRVTSSRLGAGFGE	< -0.25
PRRREATANQLAPVAKVRLL	< -0.25

Substance	growth estimate
RVILTE	< -0.25
DLRE	< -0.25
RRGSQGVPPWSYDRPCTFGN	< -0.25
RTQMQQTVKSLNHM	< -0.25
VGNQCDPKRGGSRTGVA	< -0.25
VLPTTRSHFSCSTHLN	< -0.25
SCVVGSILRQWSKRVPGLPG	< -0.25
NVLQLSLSQSIFSRSGPRCA	< -0.25
QFRQYGKTVLCVVQ	< -0.25
VPIRHMHSLFG	< -0.25
RWGFAPRAWRAGSAIDIITS	< -0.25
RTCI	< -0.25
RSVRVKAIESAPVPP	< -0.25
KRLLKATMPIFCSDRGGG	-0.246
FRFRP	< -0.25
GRAPRNSMIDWELVVAQDTH	< -0.25
FISWG	< -0.25
RGFVCRMQCWNKPGRRRREV	< -0.25
GFVSARVLLVHRTGCRT	< -0.25
YGIAIIVRVYAGNFGSIHRP	< -0.25
NPAV	< -0.25
SFECLSTSVATVIQGFATHF	< -0.25
VRYWSTNWFVKTLLPTCF	< -0.25
